Source: the supplement of paper PMC8326762, “A Small Molecule Inhibitor of Pex3–Pex19 Interaction Disrupts Glycosome Biogenesis and Causes Lethality in Trypanosoma brucei” (Frontiers in Cell and Developmental Biology, 2021)
Counter-ions that a name gives are not always drawn. The list shows a part of the results. Single values of this set are uncertain.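 Yeast growth was measured as optical density at 600 nm. Two-hybrid strains grew without histidine, so growth depended on Pex3–Pex19 binding. A compound was trypanosome-selective if it reduced growth of the trypanosome-pair strain by over 65% and of the human-pair strain by under 65%.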

Tests used:
[1] = test system: Saccharomyces cerevisiae HF7c pdr5Δ; experiment: general growth inhibition of yeast HF7c pdr5Δ in -Leu -Trp medium, relative to DMSO; higher = stronger general growth inhibition; details: 100 µM; 24 h
[2] = test system: human PEX3-PEX19 interaction (yeast two-hybrid); experiment: growth inhibition of yeast two-hybrid strain reporting HsPex3-HsPex19 interaction, relative to DMSO; higher = stronger inhibition of human Pex3-Pex19 interaction / growth; details: 100 µM; 24 h; 3-aminotriazole 10 mM
[3] = test system: T. brucei Pex3-Pex19 interaction (yeast two-hybrid); experiment: growth inhibition of yeast two-hybrid strain reporting TbPex3-TbPex19 interaction, relative to DMSO; higher = stronger inhibition of T. brucei Pex3-Pex19 interaction / growth; details: 100 µM; 24 h

SMILES | general growth inhibition [1] | growth inhibition [2] | growth inhibition [3]
CC(C)COC(=O)OCN1C(=O)CN(CCN2CC(=O)N(COC(=O)OCC(C)C)C(=O)C2)CC1=O [Sobuzoxane] | 40.8% | 42.3% | 64.2%
NC(=S)c1ccc[n+]([C@@H]2O[C@@H](COP(=O)([O-])OP(=O)(O)OC[C@H]3O[C@@H](n4cnc5c(N)ncnc54)C(OP(=O)(O)O)[C@H]3O)C(O)C2O)c1 (stereo not given in full) [Thio-NADP sodium] | 46.9% | 46.9% | 56.8%
CC(=O)NC[C@H]1CN(c2ccc(N3CCOCC3)c(F)c2)C(=O)O1 [Linezolid] | 41.3% | 32% | 63.7%
CC(CCc1ccc(O)cc1)NCCc1ccc(O)c(O)c1 (stereo not given) [Dobutamine hydrochloride] | 34% | 53.8% | 53%
CCc1cccc2c3c([nH]c12)C(CC)(CC(=O)O)OCC3 (stereo not given) [Etodolac] | 3.67% | 17.4% | 31.3%
O=c1c(O)c(-c2ccc(O)c(O)c2)oc2cc(O)cc(O)c12 [Quercetin dihydrate] | 37.2% | 33.3% | 59%
Fc1ccc2[nH]c(CN3CCN(c4ccccn4)CC3)cc2c1 | 20.4% | 25.7% | 47.9%
CSc1nc(N)c2ncn([C@@H]3O[C@H](COP(=O)(O)OP(=O)(O)O)[C@H](O)C3O)c2n1 (stereo not given in full) | 34% | 31.9% | 59.3%
O=C1NC(c2cccc([N+](=O)[O-])c2)=CCN1c1ccccc1O [Icilin] | 34.2% | 22.7% | 61.6%
CCN1/C(=C/C(C)=O)Sc2ccc(OC)cc21 | 49.9% | 43.1% | 57.1%
CCOC(=O)N1CCC(=C2c3ccc(Cl)cc3CCc3cccnc32)CC1 [Loratadine] | 26% | -0.874% | -5.34%
O=c1cc(-c2ccccc2)oc2c(O)c(O)ccc12 [7,8-Dihydroxyflavone hydrate] | 42.6% | 38.4% | 61.4%
O=C(Nc1ccccc1)c1cc([N+](=O)[O-])ccc1Cl | 47.2% | 40.1% | 50%
COc1ccc(/C=C/C(=O)Nc2ccccc2C(=O)O)cc1OC [Tranilast] | 6.96% | 0.238% | 18.2%
CN(C)CCCC1(c2ccc(F)cc2)OCc2cc(C#N)ccc21 (stereo not given) [Citalopram hydrobromide] | 49.3% | 31.6% | 61.8%
CN1CCc2cc(Cl)c(O)cc2[C@@H](c2ccccc2)C1 | 33.9% | 39.8% | 64.9%
CC(C)(C)C(=O)Oc1ccc(S(=O)(=O)Nc2ccccc2C(=O)NCC(=O)O)cc1 [Sivelestat sodium salt hydrate] | 53.7% | 51.8% | 65.9%
Oc1ccc(C2CNCCc3c2cc(O)c(O)c3Cl)cc1 (stereo not given) [Fenoldopam bromide] | -2.34% | -0.318% | 32.5%
C[C@H](N[C@@H](CCc1ccccc1)C(=O)O)C(=O)N1CCC[C@H]1C(=O)O [Enalaprilat dihydrate] | 44.6% | 51.1% | 61.1%
CNCCC(Oc1ccccc1OC)c1ccccc1 (stereo not given) [Nisoxetine hydrochloride] | 41.6% | 33.4% | 60.9%
COC(=O)C1=C(C)NC(C)=C(C(=O)OC)C1c1ccccc1[N+](=O)[O-] [Nifedipine] | 60.3% | 52% | 58.6%
CC(C)(C)NCC(O)c1ccc(O)c(CO)c1 (stereo not given) [Albuterol hemisulfate] | 53.1% | 46% | 66.2%
CCCn1c(=O)c(C)cn2nc(N)nc12 | 50.5% | 50% | 73.8%
COc1ccc(-c2cc3ncc(C)n3c(Nc3ncccc3C(N)=O)n2)cc1OC [BAY 61-3606 hydrochloride hydrate] | 48% | 43.8% | 65.1%
NCCCCCCCCCCN [1,10-Diaminodecane] | 36.6% | 42.9% | 66.2%
CO[C@H]1O[C@@H]2O[C@@]3(C)CC[C@H]4[C@H](C)CC[C@@H]([C@H]1C)[C@@]24OO3 [Artemether] | 43.6% | 37.6% | 48.2%
C[C@H](CSC(=O)c1ccccc1)C(=O)N1C[C@@H](Sc2ccccc2)C[C@H]1C(=O)O [Zofenopril calcium] | 56% | 26.3% | 35.9%
O=C(O)c1cc(=O)c2c(Cl)cc(Cl)cc2[nH]1 [5,7-Dichlorokynurenic acid] | 20% | 25% | 69.8%
COC(=O)c1c(C)[nH]c(C)c1C(=O)c1ccccc1Cc1ccccc1 | 40.1% | 32.6% | 35.9%
COc1cc(OC)cc(-c2cc3cnc(N)nc3nc2NC(=O)NC(C)(C)C)c1 | 55.7% | 40.2% | 64.1%

Taken from above:
`NCCCCCCCCCCN` [1,10-Diaminodecane] | general growth inhibition [1]: 36.6%
`CC(C)(C)C(=O)Oc1ccc(S(=O)(=O)Nc2ccccc2C(=O)NCC(=O)O)cc1` [Sivelestat sodium salt hydrate] | general growth inhibition [1]: 53.7%
